Assay results published in the supplement of paper PMC10849652.
The list shows a part of the results.

Protein sequences, listed by entry. Tags and fused reporters are not part of them. Lines headed by an entry give the natural chain unless they say otherwise; changes in a name come on top.
UniProt P04183: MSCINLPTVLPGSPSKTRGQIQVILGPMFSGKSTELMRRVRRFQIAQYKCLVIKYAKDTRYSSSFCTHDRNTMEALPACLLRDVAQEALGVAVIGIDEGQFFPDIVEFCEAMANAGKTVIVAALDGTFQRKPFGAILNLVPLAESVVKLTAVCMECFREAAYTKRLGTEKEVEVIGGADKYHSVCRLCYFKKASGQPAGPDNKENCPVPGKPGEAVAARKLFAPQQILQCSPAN
UniProt Q96MV1: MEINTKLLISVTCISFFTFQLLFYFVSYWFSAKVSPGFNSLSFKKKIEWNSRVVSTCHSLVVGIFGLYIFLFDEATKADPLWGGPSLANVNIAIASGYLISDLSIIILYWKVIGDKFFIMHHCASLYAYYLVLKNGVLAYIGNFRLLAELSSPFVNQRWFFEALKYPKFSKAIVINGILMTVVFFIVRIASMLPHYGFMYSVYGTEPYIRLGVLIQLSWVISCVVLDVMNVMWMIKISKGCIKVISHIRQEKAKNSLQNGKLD
UniProt Q5VWP2: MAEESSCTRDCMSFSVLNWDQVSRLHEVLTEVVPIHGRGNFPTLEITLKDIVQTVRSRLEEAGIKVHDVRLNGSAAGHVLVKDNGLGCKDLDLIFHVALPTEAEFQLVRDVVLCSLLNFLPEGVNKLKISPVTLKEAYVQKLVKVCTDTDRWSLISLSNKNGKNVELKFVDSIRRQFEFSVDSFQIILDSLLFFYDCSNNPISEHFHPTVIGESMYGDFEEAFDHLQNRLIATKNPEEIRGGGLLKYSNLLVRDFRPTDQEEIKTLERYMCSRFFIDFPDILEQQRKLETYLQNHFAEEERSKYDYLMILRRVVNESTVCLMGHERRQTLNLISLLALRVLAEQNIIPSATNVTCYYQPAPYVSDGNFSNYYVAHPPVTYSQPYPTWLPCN
UniProt Q9BV44: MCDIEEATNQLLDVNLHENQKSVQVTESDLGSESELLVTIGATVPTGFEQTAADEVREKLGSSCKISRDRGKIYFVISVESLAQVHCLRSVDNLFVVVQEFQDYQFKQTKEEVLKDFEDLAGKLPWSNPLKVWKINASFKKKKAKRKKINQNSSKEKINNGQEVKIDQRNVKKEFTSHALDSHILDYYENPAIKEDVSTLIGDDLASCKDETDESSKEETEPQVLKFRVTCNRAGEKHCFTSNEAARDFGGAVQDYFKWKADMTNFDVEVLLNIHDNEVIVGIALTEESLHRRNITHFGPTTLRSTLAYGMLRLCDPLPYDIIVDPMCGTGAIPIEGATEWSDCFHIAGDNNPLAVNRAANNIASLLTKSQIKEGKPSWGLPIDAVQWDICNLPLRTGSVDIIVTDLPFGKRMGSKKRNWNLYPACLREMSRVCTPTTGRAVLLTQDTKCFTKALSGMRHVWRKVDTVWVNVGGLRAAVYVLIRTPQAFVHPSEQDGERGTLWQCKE
UniProt P62072: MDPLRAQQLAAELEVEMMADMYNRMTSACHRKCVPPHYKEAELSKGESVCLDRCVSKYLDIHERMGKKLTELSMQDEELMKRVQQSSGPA
UniProt Q9P016: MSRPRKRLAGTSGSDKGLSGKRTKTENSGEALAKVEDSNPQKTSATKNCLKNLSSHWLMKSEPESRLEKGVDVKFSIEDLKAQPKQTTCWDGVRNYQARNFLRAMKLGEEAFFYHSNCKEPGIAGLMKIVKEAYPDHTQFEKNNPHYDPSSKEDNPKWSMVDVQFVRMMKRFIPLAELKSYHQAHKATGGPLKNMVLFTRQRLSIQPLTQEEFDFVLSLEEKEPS
UniProt Q96FV9: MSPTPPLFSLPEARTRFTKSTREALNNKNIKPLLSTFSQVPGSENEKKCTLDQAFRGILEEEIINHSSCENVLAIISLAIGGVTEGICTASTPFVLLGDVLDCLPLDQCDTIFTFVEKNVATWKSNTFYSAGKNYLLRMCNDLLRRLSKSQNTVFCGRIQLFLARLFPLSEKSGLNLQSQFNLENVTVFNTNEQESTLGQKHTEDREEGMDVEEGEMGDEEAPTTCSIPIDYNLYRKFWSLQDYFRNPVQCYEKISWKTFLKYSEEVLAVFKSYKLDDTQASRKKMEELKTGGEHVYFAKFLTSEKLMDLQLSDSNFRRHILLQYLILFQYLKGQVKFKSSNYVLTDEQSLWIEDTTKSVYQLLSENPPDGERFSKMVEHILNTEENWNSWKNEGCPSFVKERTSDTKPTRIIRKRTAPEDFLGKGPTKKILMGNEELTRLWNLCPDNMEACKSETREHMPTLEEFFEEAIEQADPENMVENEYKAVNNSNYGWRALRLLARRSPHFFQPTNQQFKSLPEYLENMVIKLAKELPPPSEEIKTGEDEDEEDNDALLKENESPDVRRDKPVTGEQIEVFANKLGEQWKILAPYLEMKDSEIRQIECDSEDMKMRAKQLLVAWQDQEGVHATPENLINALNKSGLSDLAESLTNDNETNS
UniProt Q13769: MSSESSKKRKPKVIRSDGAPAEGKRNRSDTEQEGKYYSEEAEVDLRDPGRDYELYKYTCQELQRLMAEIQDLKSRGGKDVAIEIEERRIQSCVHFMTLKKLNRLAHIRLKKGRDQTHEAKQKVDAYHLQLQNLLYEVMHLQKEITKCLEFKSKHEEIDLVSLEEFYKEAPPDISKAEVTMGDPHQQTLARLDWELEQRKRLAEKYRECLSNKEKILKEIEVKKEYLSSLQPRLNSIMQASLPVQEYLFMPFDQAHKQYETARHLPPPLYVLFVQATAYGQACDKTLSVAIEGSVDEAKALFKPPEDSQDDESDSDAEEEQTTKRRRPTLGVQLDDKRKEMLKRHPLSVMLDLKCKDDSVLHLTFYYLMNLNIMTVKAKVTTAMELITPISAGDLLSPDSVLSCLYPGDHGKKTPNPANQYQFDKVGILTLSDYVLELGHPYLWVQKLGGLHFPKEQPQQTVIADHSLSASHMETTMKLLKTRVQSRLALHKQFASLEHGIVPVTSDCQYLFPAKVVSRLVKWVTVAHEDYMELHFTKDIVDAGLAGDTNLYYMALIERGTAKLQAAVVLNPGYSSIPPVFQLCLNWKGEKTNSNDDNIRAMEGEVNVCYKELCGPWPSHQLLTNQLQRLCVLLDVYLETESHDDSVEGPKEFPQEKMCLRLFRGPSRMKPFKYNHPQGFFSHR
UniProt Q00059: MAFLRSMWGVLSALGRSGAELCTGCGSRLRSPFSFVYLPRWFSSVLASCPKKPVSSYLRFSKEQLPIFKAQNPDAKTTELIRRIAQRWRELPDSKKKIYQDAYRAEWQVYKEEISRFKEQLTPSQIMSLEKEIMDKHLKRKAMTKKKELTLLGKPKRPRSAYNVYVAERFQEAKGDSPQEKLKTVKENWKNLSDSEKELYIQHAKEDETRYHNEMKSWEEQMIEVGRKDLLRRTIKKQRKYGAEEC
UniProt P21980: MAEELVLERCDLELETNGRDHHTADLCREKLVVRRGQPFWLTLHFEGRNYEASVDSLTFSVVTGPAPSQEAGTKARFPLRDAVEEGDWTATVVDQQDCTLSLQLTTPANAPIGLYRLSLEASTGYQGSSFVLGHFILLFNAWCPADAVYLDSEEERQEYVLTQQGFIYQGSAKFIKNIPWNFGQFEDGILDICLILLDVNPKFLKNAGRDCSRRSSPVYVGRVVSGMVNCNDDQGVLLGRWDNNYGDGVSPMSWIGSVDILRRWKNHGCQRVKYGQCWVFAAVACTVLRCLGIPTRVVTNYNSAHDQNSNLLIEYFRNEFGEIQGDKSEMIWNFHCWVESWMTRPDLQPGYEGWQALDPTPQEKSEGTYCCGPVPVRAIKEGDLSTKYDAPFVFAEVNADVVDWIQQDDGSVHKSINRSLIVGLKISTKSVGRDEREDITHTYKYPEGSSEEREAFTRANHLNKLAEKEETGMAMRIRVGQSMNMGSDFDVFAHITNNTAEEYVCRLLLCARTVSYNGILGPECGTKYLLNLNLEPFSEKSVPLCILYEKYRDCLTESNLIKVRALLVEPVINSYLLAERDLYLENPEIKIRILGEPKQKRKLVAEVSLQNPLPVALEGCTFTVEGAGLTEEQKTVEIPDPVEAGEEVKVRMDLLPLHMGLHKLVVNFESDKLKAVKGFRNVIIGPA
UniProt Q03167: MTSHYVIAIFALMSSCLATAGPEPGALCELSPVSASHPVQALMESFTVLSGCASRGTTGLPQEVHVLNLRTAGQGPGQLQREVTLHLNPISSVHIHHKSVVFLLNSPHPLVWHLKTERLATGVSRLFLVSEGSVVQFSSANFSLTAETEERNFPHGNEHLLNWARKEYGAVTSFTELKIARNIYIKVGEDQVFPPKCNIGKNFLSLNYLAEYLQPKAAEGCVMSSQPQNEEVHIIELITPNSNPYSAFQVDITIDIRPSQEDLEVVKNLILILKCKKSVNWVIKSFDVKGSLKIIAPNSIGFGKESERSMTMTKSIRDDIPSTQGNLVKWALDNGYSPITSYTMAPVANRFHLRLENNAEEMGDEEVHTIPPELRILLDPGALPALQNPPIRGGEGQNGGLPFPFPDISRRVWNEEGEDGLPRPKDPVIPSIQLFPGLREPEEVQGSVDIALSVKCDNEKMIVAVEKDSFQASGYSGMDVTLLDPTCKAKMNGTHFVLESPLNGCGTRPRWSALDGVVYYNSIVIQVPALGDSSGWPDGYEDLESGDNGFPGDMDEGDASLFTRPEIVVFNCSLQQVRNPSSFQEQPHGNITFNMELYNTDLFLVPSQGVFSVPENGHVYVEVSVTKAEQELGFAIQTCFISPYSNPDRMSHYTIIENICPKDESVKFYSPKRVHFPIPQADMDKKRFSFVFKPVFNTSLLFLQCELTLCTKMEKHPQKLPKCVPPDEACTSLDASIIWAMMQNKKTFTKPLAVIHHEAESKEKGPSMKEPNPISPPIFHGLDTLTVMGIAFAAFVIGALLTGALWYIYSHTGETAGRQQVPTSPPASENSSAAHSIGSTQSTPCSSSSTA
UniProt O60830: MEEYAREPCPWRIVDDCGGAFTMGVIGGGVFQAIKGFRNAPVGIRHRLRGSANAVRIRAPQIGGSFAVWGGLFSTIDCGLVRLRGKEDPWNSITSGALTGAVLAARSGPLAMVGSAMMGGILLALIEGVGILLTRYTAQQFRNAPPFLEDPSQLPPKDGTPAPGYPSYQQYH
UniProt Q99595: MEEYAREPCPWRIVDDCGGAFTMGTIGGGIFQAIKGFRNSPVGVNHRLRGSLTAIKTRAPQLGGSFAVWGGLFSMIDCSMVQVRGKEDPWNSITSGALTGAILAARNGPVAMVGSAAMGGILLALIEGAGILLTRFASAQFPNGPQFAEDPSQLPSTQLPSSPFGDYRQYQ
UniProt P17987, whole entry, looked up: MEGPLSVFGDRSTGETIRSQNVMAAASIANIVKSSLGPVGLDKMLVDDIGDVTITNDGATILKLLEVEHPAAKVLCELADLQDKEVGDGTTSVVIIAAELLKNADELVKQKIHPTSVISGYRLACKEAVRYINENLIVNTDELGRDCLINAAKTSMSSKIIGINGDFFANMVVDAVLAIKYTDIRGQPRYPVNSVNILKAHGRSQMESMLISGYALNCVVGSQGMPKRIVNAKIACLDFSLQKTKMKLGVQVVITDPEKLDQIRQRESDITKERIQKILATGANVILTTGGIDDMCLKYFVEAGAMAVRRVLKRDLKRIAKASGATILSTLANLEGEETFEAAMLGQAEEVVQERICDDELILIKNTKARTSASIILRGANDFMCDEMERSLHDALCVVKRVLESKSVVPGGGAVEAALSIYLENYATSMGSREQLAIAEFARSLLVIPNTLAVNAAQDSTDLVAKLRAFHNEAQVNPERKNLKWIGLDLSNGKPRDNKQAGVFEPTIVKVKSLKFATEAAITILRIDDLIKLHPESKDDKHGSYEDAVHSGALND
UniProt Q969Z0: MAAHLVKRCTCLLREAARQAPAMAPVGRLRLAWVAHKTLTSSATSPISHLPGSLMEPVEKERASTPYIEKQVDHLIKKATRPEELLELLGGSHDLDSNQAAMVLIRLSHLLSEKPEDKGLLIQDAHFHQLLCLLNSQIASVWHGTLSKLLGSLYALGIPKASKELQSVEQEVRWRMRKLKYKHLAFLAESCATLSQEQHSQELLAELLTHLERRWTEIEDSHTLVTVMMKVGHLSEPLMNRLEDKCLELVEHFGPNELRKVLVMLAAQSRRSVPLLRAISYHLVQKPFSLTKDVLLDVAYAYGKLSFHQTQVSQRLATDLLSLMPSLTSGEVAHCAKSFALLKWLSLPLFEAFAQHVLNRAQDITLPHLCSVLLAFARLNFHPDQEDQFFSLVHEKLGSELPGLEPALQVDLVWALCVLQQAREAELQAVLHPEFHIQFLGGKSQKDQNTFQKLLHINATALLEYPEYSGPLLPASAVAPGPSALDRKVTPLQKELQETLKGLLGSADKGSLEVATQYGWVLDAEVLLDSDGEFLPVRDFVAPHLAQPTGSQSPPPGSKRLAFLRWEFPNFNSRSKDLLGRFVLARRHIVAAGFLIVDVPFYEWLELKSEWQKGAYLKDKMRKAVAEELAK

What was measured:
Test in all cases: log2 fold change, soluble protein after heating vs DMSO (PISA); higher = thermal stabilisation; K562 cells, 10 uM, 30 min; active = over 0.2 and 3.5 SD of the protein, either way, in both replicates (recomputed)
bafetinib = compound: Cc1ccc(NC(=O)c2ccc(CN3CC[C@H](N(C)C)C3)c(C(F)(F)F)c2)cc1Nc1nccc(-c2cncnc2)n1 [bafetinib]
Outline: (§1)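 K562 cells at 2×10^6 cells/mL were treated for 30 min with 10 μM compound, and aliquots were heated for 3 min over 48°C-58°C before pooling. Extraction used PBS with 0.5% NP-40 at 4°C, and soluble protein was the supernatant after 21,000xg for 90 min, measured by TMTpro 16plex LC-MS/MS with channel sums equalised. Thermal stability values, relative to control samples and from duplicates, are log2 fold changes.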

[1] = compound: Cc1cccc(CC(=O)N2CCc3c2ccc(-c2cn(C)c4ncnc(N)c24)c3F)n1
Outline: as §1

nilotinib = compound: Cc1cn(-c2cc(NC(=O)c3ccc(C)c(Nc4nccc(-c5cccnc5)n4)c3)cc(C(F)(F)F)c2)cn1 [nilotinib]
Outline: as §1

[2] = compound: Cc1nc(Nc2n[nH]c3c2CN(C(=O)N[C@H](CN(C)C)c2ccccc2)C3(C)C)c2sccc2n1
Outline: as §1

dasatinib = compound: Cc1nc(Nc2ncc(C(=O)Nc3c(C)cccc3Cl)s2)cc(N2CCN(CCO)CC2)n1 [dasatinib]
Outline: as §1

[3] = compound: Cc1ncc(-c2ccnc(Nc3ccc(S(C)(=O)=O)cc3)n2)n1C(C)C
Outline: as §1

[4] = compound: Cn1cc(-c2ccc3c(c2)CCN3C(=O)Cc2cccc(C(F)(F)F)c2)c2c(N)ncnc21
Outline: as §1

[5] = compound: Cn1cc(-c2ccc3nnc(C(F)(F)c4ccc5ncccc5c4)n3n2)cn1
Outline: as §1

tipifarnib = compound: Cn1cncc1[C@@](N)(c1ccc(Cl)cc1)c1ccc2c(c1)c(-c1cccc(Cl)c1)cc(=O)n2C [tipifarnib]
Outline: as §1

mubritinib = compound: FC(F)(F)c1ccc(/C=C/c2nc(COc3ccc(CCCCn4ccnn4)cc3)co2)cc1 [mubritinib]
Outline: as §1

Measured: log2 fold change

TBL2 (UniProt Q9Y4P3)
inactive: bafetinib 0.156 | [1] 0.002 | nilotinib -0.084 | [2] 0 | dasatinib 0.014 | [3] 0.01 | [4] -0.139 | [5] -0.079 | tipifarnib 0.017 | mubritinib -0.07

TK1 (UniProt P04183)
inactive: bafetinib -0.04 | [1] -0.028 | nilotinib -0.002 | [2] 0.028 | dasatinib 0.032 | [3] -0.036 | [4] 0.015 | [5] 0 | tipifarnib 0 | mubritinib 0.056

TCF3 (UniProt P15923)
inactive: bafetinib -0.069 | [1] 0.105 | nilotinib -0.066 | [2] -0.022 | dasatinib 0.015 | [3] -0.042 | [4] 0.012 | [5] -0.135 | tipifarnib 0.023 | mubritinib 0.056

TLCD4 (UniProt Q96MV1)
inactive: bafetinib -0.003 | [1] -0.016 | nilotinib 0.011 | [2] 0.018 | dasatinib 0.014 | [3] 0.064 | [4] -0.067 | [5] -0.09 | tipifarnib 0.038 | mubritinib -0.001

TENT5C (UniProt Q5VWP2)
inactive: bafetinib -0.055 | [1] 0.009 | nilotinib 0.002 | [2] 0.02 | dasatinib -0.122 | [3] 0.005 | [4] -0.286 | [5] 0.028 | tipifarnib -0.02 | mubritinib 0.014

TIMMDC1 (UniProt Q9NPL8)
inactive: bafetinib -0.024 | [1] -0.071 | nilotinib 0.059 | [2] 0.012 | dasatinib 0.103 | [3] -0.007 | [4] -0.001 | [5] 0.053 | tipifarnib 0.043 | mubritinib 0.011

THUMPD3 (UniProt Q9BV44)
inactive: bafetinib -0.049 | [1] 0.189 | nilotinib 0.007 | [2] -0.029 | dasatinib -0.016 | [3] -0.03 | [4] 0.054 | [5] 0.01 | tipifarnib -0.057 | mubritinib 0.074

TIMM29 (UniProt Q9BSF4)
inactive: bafetinib -0.051 | [1] -0.077 | nilotinib -0.002 | [2] 0.069 | dasatinib -0.031 | [3] -0.039 | [4] -0.029 | [5] 0.057 | tipifarnib -0.046 | mubritinib 0.064

TIMM10 (UniProt P62072)
inactive: bafetinib -0.081 | [1] 0.027 | nilotinib 0.014 | [2] 0.005 | dasatinib 0.114 | [3] -0.027 | [4] -0.05 | [5] 0.153 | tipifarnib 0.048 | mubritinib -0.024

THYN1 (UniProt Q9P016)
inactive: bafetinib 0.009 | [1] -0.028 | nilotinib -0.021 | [2] 0.044 | dasatinib -0.097 | [3] -0.009 | [4] -0.015 | [5] 0.013 | tipifarnib -0.036 | mubritinib 0.031

THNSL1 (UniProt Q8IYQ7)
inactive: bafetinib 0.062 | [1] -0.038 | nilotinib 0.113 | [2] 0.017 | dasatinib -0.081 | [3] -0.02 | [4] 0.052 | [5] -0.015 | tipifarnib -0.021 | mubritinib -0.048

THOC1 (UniProt Q96FV9)
inactive: bafetinib -0.097 | [1] -0.143 | nilotinib -0.001 | [2] -0.055 | dasatinib -0.049 | [3] 0.075 | [4] -0.058 | [5] 0.059 | tipifarnib 0.044 | mubritinib 0

THOC5 (UniProt Q13769)
inactive: bafetinib -0.07 | [1] 0.017 | nilotinib 0.032 | [2] -0.039 | dasatinib -0.001 | [3] -0.011 | [4] 0.001 | [5] -0.08 | tipifarnib -0.005 | mubritinib -0.003

TFAM (UniProt Q00059)
inactive: bafetinib 0.034 | [1] 0.013 | nilotinib -0.025 | [2] 0.023 | dasatinib 0.077 | [3] 0.003 | [4] -0.048 | [5] -0.038 | tipifarnib 0.039 | mubritinib -0.068

TGM2 (UniProt P21980)
inactive: bafetinib -0.055 | [1] 0.032 | nilotinib -0.011 | [2] -0.033 | dasatinib -0.029 | [3] -0.006 | [4] 0.035 | [5] -0.014 | tipifarnib -0.023 | mubritinib 0.005

TLE3 isoform 4 (UniProt Q04726)
inactive: bafetinib -0.031 | [1] -0.016 | nilotinib 0.02 | [2] 0.007 | dasatinib 0.095 | [3] -0.012 | [4] 0.017 | [5] 0.013 | tipifarnib -0.023 | mubritinib 0.031

TGFBR3 (UniProt Q03167)
inactive: bafetinib 0.01 | [1] 0.001 | nilotinib 0.026 | [2] -0.075 | dasatinib 0.072 | [3] 0.125 | [4] 0.077 | [5] -0.089 | tipifarnib -0.006 | mubritinib -0.046

TIMM17B (UniProt O60830)
inactive: bafetinib -0.05 | [1] 0 | nilotinib 0.021 | [2] -0.085 | dasatinib 0.026 | [3] -0.003 | [4] -0.026 | [5] 0.059 | tipifarnib 0.029 | mubritinib 0.039

TGFBI (UniProt Q15582)
inactive: bafetinib -0.241 | [1] 0.148 | nilotinib -0.099 | [2] 0.054 | dasatinib -0.04 | [3] 0.167 | [4] 0.197 | [5] 0.098 | tipifarnib -0.063 | mubritinib -0.02

TIMM17A (UniProt Q99595)
inactive: bafetinib -0.005 | [1] -0.053 | nilotinib 0.019 | [2] 0.042 | dasatinib 0.012 | [3] -0.07 | [4] 0.012 | [5] 0.008 | tipifarnib 0.036 | mubritinib 0.061

TKT, A0A0B4J1R6
inactive: bafetinib 0.078 | nilotinib 0.075 | [2] -0.003 | dasatinib 0.117 | [3] -0.033 | [4] -0.058 | [5] 0.152 | tipifarnib 0.204 | mubritinib 0.042

TCP1 (UniProt P17987)
inactive: bafetinib -0.002 | [1] 0.035 | nilotinib -0.068 | [2] 0.026 | dasatinib -0.008 | [3] 0.003 | [4] 0.009 | [5] 0.003 | tipifarnib -0.016 | mubritinib -0.007

TCF12 isoform 3 (UniProt Q99081)
inactive: bafetinib -0.103 | [1] 0.026 | nilotinib -0.026 | [2] 0.133 | dasatinib -0.143 | [3] -0.007 | [4] -0.058 | [5] -0.018 | tipifarnib -0.068 | mubritinib -0.001

TFRC (UniProt P02786)
inactive: [1] -0.038 | nilotinib -0.005 | [2] -0.043 | dasatinib 0.009 | [3] -0.018 | [4] 0.012 | [5] 0.027 | tipifarnib -0.004 | mubritinib 0.052
active: bafetinib -0.277

TELO2 (UniProt Q9Y4R8)
inactive: bafetinib 0.069 | [1] 0.158 | nilotinib -0.023 | [2] -0.041 | dasatinib -0.039 | [3] 0.039 | [4] -0.058 | [5] 0.046 | tipifarnib -0.185 | mubritinib 0.103

TBRG4 (UniProt Q969Z0)
inactive: bafetinib -0.137 | [1] -0.035 | nilotinib -0.027 | [2] -0.291 | dasatinib -0.513 | [3] 0.006 | [4] 0.095 | [5] 0.003 | tipifarnib -0.317 | mubritinib -0.277

THADA (UniProt Q6YHU6)
inactive: bafetinib 0 | [1] 0.027 | nilotinib -0.068 | [2] 0.045 | dasatinib -0.15 | [3] -0.028 | [4] 0.098 | [5] 0.055 | tipifarnib -0.1 | mubritinib 0.123

TIMM21 (UniProt Q9BVV7)
inactive: bafetinib -0.149 | [1] 0.058 | nilotinib -0.011 | [2] -0.014 | dasatinib 0.011 | [3] -0.003 | [4] 0.025 | [5] 0.074 | tipifarnib 0.055 | mubritinib -0.011

TBP (UniProt P20226)
inactive: bafetinib -0.039 | nilotinib 0.008 | [2] 0.093 | dasatinib 0.104 | [3] 0.079 | [4] -0.112 | [5] 0.036 | tipifarnib 0.013 | mubritinib 0.004

Taken from the results shown (two entries):
TLE3 isoform 4 (UniProt Q04726)
inactive: bafetinib -0.031 | [1] -0.016 | nilotinib 0.02 | [2] 0.007 | dasatinib 0.095 | [3] -0.012 | [4] 0.017 | [5] 0.013 | tipifarnib -0.023 | mubritinib 0.031

TGFBR3 (UniProt Q03167)
inactive: bafetinib 0.01 | [1] 0.001 | nilotinib 0.026 | [2] -0.075 | dasatinib 0.072 | [3] 0.125 | [4] 0.077 | [5] -0.089 | tipifarnib -0.006 | mubritinib -0.046

The listing continues.

TCEA1 (UniProt P23193)
inactive: bafetinib -0.025 | [1] 0.002 | nilotinib -0.009 | [2] -0.082 | dasatinib -0.004 | [3] -0.007 | [4] 0.024 | [5] 0.01 | tipifarnib 0.049 | mubritinib 0.038
